In patent US8871463B2, “Method for screening a glutamate release inhibitor in an astrocyte” (Korea Institute of Science and Technology, priority 2012, dated 2014):
For at least one compound, name, drawing or mass did not settle the structure.

Test system: astrocyte
Type: cell-based, mouse

Structure (SMILES): C=C[C@@]1(C)CC(=O)[C@]2(O)[C@@]3(C)[C@@H](O)CCC(C)(C)[C@@H]3[C@H](O)[C@H](OC(C)=O)[C@@]2(C)O1 [forskolin, Forskolin]
- fast-mode of glutamate release induced by the agent itself: does not induce
